PubChem BioAssay AID504444 (National Center for Advancing Translational Sciences (NCATS), 2011)
The whole screen tested about 360,000 compounds, of which about 7,500 (2.1%) were called active. Inconclusive results, whose numbers are uncertain, are shown with a selection of clear calls. Calls follow the shape of the dose curve; as a rule, active = well fitted inhibition curve with a large enough effect; inconclusive = small, poorly fitted or top-dose-only effect, or effect the other way; inactive = flat fitted curve, though single readings scatter. Where the call is inconclusive, the potency comes from a doubtful curve fit.

Assay: Nrf2 qHTS screen for inhibitors; also: nearly all actives have a fitted effect of over 60% in size
Details: A549 ARE-Fluc reporter, luciferase luminescence, 18-24 h; series mostly up to 46 µM
Outline: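 Quantitative HTS in A549 cells stably bearing an antioxidant response element-firefly luciferase construct. Inhibition of Nrf2-driven transcription was scored by luminescence after 18-24 h of compound exposure at 37 °C.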
Potency is read from the fitted curve at half-maximal effect.

Compound | Potency
COc1ccc2cc(CNc3ccccc3)c(=O)n(CC(=O)Nc3ccc(C)cc3C)c2c1 | inconclusive: 29.1 µM [falling, single point]
O=[N+]([O-])c1cccc(/C=N/N2CCN(Cc3ccc(Cl)cc3)CC2)c1 | inconclusive: 8.2 µM [falling, partial curve, poor fit]
COc1ccc(C(=O)N/N=C/c2ccc(N3CCOCC3)s2)cc1OC | inconclusive: 2.59 µM [activator, partial curve, poor fit]
COc1ccccc1C(=O)NC1CCN(C(=O)Nc2ccc(C)cc2)CC1 | inconclusive: 32.6 µM [falling, single point]
O=C(Cn1cnc2c(cnn2-c2ccc(Cl)cc2)c1=O)N1CCN(c2ccccc2)CC1 | inactive
CC(=O)OCC(=O)[C@@]1(O)CC[C@H]2[C@@H]3CCC4=CC(=O)C=C[C@]4(C)[C@H]3[C@@H](O)C[C@@]21C | active: 0.0517 µM
COc1ccccc1N(C)S(=O)(=O)c1ccc(C(=O)NCC(C)C)cc1 | inconclusive: 29.1 µM [falling, single point]
Cc1ccc2nc(SCc3nc(-c4ccccc4C)no3)[nH]c2c1 | inconclusive: 29.1 µM [falling, single point]
O=C1S/C(=C\c2ccc(O)c([N+](=O)[O-])c2)C(=O)N1c1ccccc1Cl | inconclusive: 29.1 µM [falling, single point]
COc1ccc(CCn2c(C)cc(C(=O)CN3C(=O)C(=O)N(C4CCCC4)C3=O)c2C)cc1OC | inconclusive: 16.4 µM [falling, single point]
O=C(Nc1nc2cc3c(cc2s1)OCO3)C1=COCCO1 | inconclusive: 18.4 µM [falling, single point]
CCOC(=O)c1sc(NC(=O)c2ccc(Br)o2)cc1C | inconclusive: 0.517 µM [activator, partial curve, poor fit]
COc1ccc(C2=NN(C(=O)CSC3=NN4CCCC(=O)N=C4S3)C(c3cccc(OC)c3OC)C2)cc1 (stereo not given) | inconclusive: 6.51 µM [falling, single point]
CC(C)OC(=O)/C(=C\c1ccc2c(c1)c1ccccc1n2C)NC(=O)c1ccccc1 | inactive
Cc1cc(C)c2oc(-c3cccc(NC(=O)c4cc5ccccc5o4)c3)nc2c1 | inactive
Cc1ccc(-c2csc(NC3OC(=O)c4ccccc43)n2)cc1 (stereo not given) | inconclusive: 29.1 µM [activator, single point]
O=S(=O)(NCCOCC(F)(F)C(F)F)c1ccc2oc3ccccc3c2c1 | inconclusive: 20.6 µM [falling, single point]
Cc1cc2nc(-c3ccc(SCc4ccc(C#N)cc4)nc3)[nH]c2cc1C | inconclusive: 23.1 µM [falling, single point]
CCC(CC)c1nnc(NC(=O)c2cc(C(=O)OC)cc([N+](=O)[O-])c2)s1 | inconclusive: 29.1 µM [falling, partial curve, poor fit]
O=C(Nc1ccc(Cl)c([N+](=O)[O-])c1)C(Sc1ccccc1)c1ccccc1 (stereo not given) | inconclusive: 18.4 µM [falling, single point]

Compound | Potency
CCOC(=O)c1c(C)[nH]c(C(C)=NNC(=O)c2cccs2)c1C | inconclusive: 3.26 µM [activator, full curve, poor fit]
Cc1ccc(NC(=O)c2cc(CC(C)C)nc3ccccc23)cc1 | active: 5.8 µM
CCOc1ccc(NC(=O)NCc2cccn2C)cc1 | inconclusive: 8.2 µM [activator, partial curve]
CC(=O)Nc1ccc(S(=O)(=O)Oc2ccc(/C=N/NC(=O)c3ccc(Cl)cc3)cc2)cc1 | inconclusive: 29.1 µM [falling, single point]
COc1ccc(NC(=O)CN(c2ccc([N+](=O)[O-])cc2)S(=O)(=O)c2ccccc2)cc1 | inactive
COc1ccc(C2CCCN2C(=O)Nc2ccc(C)c(C)c2)cc1OC (stereo not given) | inconclusive: 18.4 µM [falling, single point]
COC(=O)C1=C(C)N(Cc2ccccc2)C(=S)N[C@H]1c1ccc(Br)cc1 | inconclusive: 29.1 µM [falling, single point]
O=C(NCCCO)NC(=S)c1cccc2ccccc12 | inconclusive: 25.9 µM [falling, single point]
Clc1ccccc1CSc1nnc(Cn2cnc3ccccc32)n1-c1ccccc1 | inconclusive: 6.51 µM [activator, single point]
Cc1nn(-c2ccccc2)c(C)c1/C=N/NC(=O)CSc1nnc(SCc2ccc(Cl)cc2)s1 | inconclusive: 29.1 µM [falling, single point]
COc1ccccc1C1C=C(c2ccccc2)Nc2nnnn21 (stereo not given) | inconclusive: 18.4 µM [falling, single point]
COc1ccc(NC(=O)CSc2ccc(-c3cccnc3)nn2)cc1 | inconclusive: 16.4 µM [falling, partial curve]
O=S(=O)(Nc1cccnc1)c1ccc(C2CCCCC2)cc1 | inconclusive: 29.1 µM [falling, single point]
Cc1ccc(Cl)cc1Nc1sc(C(=O)c2ccccc2)c(N)c1S(=O)(=O)c1ccccc1 | inconclusive: 1.64 µM [activator, partial curve, poor fit]
COc1ccc2c(c1OC)C(=O)N(c1ccccn1)C2 | inconclusive: 2.06 µM [activator, full curve]
CCCOc1ccc(C(=O)Nc2cc(-c3nc4ccccc4[nH]3)ccc2C)cc1 | inconclusive: 29.1 µM [falling, single point]
N#CCC(=O)NNC(=S)Nc1ccccc1C(F)(F)F | inconclusive: 20.6 µM [falling, single point]
COc1cccc(CN2CCCN(Cc3ccc(F)cc3)S2(=O)=O)c1 | inconclusive: 10.3 µM [falling, single point]
CCc1cc2c(NCCC(=O)O)nc(C)nc2s1 | inconclusive: 29.1 µM [activator, single point]
Cn1c(=O)c2c(nc(Oc3ccc(-c4ccccc4)cc3)n2C)n(C)c1=O | inconclusive: 2.31 µM [falling, partial curve]

Rewritten with tabs: nine of the compounds above.
Compound	Potency
COc1ccc(NC(=O)CSc2ccc(-c3cccnc3)nn2)cc1	inconclusive: 16.4 µM [falling, partial curve]
O=S(=O)(Nc1cccnc1)c1ccc(C2CCCCC2)cc1	inconclusive: 29.1 µM [falling, single point]
Cc1ccc(Cl)cc1Nc1sc(C(=O)c2ccccc2)c(N)c1S(=O)(=O)c1ccccc1	inconclusive: 1.64 µM [activator, partial curve, poor fit]
COc1ccc2c(c1OC)C(=O)N(c1ccccn1)C2	inconclusive: 2.06 µM [activator, full curve]
CCCOc1ccc(C(=O)Nc2cc(-c3nc4ccccc4[nH]3)ccc2C)cc1	inconclusive: 29.1 µM [falling, single point]
N#CCC(=O)NNC(=S)Nc1ccccc1C(F)(F)F	inconclusive: 20.6 µM [falling, single point]
COc1cccc(CN2CCCN(Cc3ccc(F)cc3)S2(=O)=O)c1	inconclusive: 10.3 µM [falling, single point]
CCc1cc2c(NCCC(=O)O)nc(C)nc2s1	inconclusive: 29.1 µM [activator, single point]
Cn1c(=O)c2c(nc(Oc3ccc(-c4ccccc4)cc3)n2C)n(C)c1=O	inconclusive: 2.31 µM [falling, partial curve]
